Source: PMC12164954
No constants are given. Whether binding was seen depends on the method and setting. Sequences can lack the tags named with a protein.

The chains behind the UniProt entries cited, without tags or fusion partners.
UniProt Q0WNJ6: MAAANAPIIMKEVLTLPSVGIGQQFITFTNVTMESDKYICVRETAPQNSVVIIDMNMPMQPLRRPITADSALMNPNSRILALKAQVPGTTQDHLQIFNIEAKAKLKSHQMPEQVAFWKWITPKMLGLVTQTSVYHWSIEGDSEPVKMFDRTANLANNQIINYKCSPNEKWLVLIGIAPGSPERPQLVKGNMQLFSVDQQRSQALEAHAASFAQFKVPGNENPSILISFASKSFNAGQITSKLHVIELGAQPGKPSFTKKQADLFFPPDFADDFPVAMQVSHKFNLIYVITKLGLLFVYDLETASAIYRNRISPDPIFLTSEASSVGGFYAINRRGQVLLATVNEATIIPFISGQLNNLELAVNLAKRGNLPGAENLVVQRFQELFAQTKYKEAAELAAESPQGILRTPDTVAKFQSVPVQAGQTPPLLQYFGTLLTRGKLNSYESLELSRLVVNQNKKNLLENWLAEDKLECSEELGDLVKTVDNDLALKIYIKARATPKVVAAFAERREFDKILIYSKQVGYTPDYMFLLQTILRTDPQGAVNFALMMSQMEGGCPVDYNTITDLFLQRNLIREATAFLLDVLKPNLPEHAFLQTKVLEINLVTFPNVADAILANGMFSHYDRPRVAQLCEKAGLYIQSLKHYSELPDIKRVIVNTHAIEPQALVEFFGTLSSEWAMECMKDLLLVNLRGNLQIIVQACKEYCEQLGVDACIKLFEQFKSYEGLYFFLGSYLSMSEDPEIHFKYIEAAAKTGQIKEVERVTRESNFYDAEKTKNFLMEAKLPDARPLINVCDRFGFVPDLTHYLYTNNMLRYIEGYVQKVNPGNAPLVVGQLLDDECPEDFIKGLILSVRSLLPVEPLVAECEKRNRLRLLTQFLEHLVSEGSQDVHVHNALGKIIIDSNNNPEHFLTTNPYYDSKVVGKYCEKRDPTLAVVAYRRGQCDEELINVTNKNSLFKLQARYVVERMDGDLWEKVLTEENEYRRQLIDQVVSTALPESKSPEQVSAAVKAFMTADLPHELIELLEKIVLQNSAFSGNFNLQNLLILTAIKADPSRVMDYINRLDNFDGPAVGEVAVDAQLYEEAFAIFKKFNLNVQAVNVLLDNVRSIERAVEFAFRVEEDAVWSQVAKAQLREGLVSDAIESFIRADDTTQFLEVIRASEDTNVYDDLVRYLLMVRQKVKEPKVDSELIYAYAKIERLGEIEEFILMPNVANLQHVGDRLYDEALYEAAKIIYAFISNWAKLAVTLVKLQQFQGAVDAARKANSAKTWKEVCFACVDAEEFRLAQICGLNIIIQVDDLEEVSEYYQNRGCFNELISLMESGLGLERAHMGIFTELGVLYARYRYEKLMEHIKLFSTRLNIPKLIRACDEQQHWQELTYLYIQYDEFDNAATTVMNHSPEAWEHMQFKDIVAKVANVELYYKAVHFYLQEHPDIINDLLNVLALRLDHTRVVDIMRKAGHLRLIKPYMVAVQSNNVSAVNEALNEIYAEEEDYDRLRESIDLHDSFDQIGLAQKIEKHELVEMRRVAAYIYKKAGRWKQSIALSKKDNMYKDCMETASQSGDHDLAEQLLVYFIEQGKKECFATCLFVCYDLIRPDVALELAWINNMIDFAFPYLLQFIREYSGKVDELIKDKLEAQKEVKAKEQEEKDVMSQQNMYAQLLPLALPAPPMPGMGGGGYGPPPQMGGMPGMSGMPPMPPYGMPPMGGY

Biological target: CHC1 (Arabidopsis thaliana) (UniProt Q0WNJ6)
Assay: two-hybrid; SnRK2s and ADA2b fused with activation domain (AD, pGADT7), CLC2 fused with binding domain (BD, pGBKT7); growth on SD-L-W-H medium containing 30 mM 3-AT

binding | Binder
no binding | SnRK2.3 fused with activation domain (AD) (enzyme, UniProt Q39193 1-361) MDRAPVTTGPLDMPIMHDSDRYDFVKDIGSGNFGVARLMRDKLTKELVAVKYIERGDKIDENVQREIINHRSLRHPNIVRFKEVILTPTHLAIIMEYASGGELYERICNAGRFSEDEARFFFQQLLSGVSYCHSMQICHRDLKLENTLLDGSPAPRLKICDFGYSKSSVLHSQPKSTVGTPAYIAPEVLLRQEYDGKIADVWSCGVTLYVMLVGAYPFEDPEEPRDYRKTIQRILSVKYSIPDDIRISPECCHLISRIFVADPATRISIPEIKTHSWFLKNLPADLMNESNTGSQFQEPEQPMQSLDTIMQIISEATIPAVRNRCLDDFMTDNLDLDDDMDDFDSESEIDIDSSGEIVYAL
no binding | SnRK2.2 fused with activation domain (AD) (enzyme, UniProt Q39192 1-362) MDPATNSPIMPIDLPIMHDSDRYDFVKDIGSGNFGVARLMTDRVTKELVAVKYIERGEKIDENVQREIINHRSLRHPNIVRFKEVILTPSHLAIVMEYAAGGELYERICNAGRFSEDEARFFFQQLISGVSYCHAMQICHRDLKLENTLLDGSPAPRLKICDFGYSKSSVLHSQPKSTVGTPAYIAPEILLRQEYDGKLADVWSCGVTLYVMLVGAYPFEDPQEPRDYRKTIQRILSVTYSIPEDLHLSPECRHLISRIFVADPATRITIPEITSDKWFLKNLPGDLMDENRMGSQFQEPEQPMQSLDTIMQIISEATIPTVRNRCLDDFMADNLDLDDDMDDFDSESEIDVDSSGEIVYAL
